At least one read-out could not be matched to a standard name with certainty.
System: NCI-60 cell line panel
Experiment: Cytotoxicity on NCI-60 cell line panel (Annexin V / propidium iodide)
Type: cell-based, human
Conditions: NCI-60 panel, FIG. 3

With `COC[C@@H](C[C@H]1O[C@@](O)([C@H](O)[C@@H]2C[C@H](OC)[C@@H](O)CC/C=C(C)/C=C/[C@@H](O[C@@H]3O[C@@H](C)[C@H](OC)[C@@H](O)[C@@H]3O)[C@H](C)/C=C(C)/C=C(C)/C=C(\C)C(=O)O2)[C@H](C)[C@@H](O)[C@H]1C)OC1C[C@](C)(O)[C@@H](O[C@H]2C[C@@H](OC)[C@H](O)[C@@H](C)O2)[C@H](C)O1` (stereo partly shown) [apoptolidin] the “total spread of IC50 values over the panel” value was “greater than 3 logs”.

Reference: patent publication US6974664B2, “Screening method for cancer therapeutics and stable antitumor drug” (The Board of Trustees of the Leland Stanford University, priority 2000, dated 2005)
